Measured values as given in paper PMC5547150.

How the values were obtained:
TIM-1 [1] = biological target: T1, TIM-1 (UniProt Q96D42); test: magnetic relaxation (T2) nanosensor assay; receptor conjugated to iron oxide nanoparticles (MRNPs); ZENV 3E-8 M in solution; PBS 1X, pH 7.4; 30 minutes at 25 °C; T2 compared with MRNPs alone; both purified
T1 sequence: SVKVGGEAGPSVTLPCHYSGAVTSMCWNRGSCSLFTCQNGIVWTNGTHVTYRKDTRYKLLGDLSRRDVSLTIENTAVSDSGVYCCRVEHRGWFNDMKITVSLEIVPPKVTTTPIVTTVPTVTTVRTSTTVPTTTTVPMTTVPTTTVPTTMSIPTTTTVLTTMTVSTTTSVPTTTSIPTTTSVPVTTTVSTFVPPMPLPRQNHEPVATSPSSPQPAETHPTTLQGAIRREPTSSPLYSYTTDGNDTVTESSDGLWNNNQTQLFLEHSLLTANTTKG

TIM-1 [2] = biological target: T1, TIM-1; test: magnetic relaxation (T2) nanosensor assay; duplicate of the receptor-MRNP assay with ZENV, in human plasma solutions; both purified

Substance: zika envelope protein
- binding (TIM-1 [1]): binds
- binding (TIM-1 [2]): binds

Results are given in words; binding and its absence hold for the method and conditions named. Binding can be weak; no strength is given.
